For 2 molecules, MIC and IC50 results are on record in PMC9457828, “Chemical Markers and Pharmacological Characters of Pelargonium graveolens Essential Oil from Palestine” (Molecules, 2022).

Molecules are shown by their SMILES. ≈ marks a conversion by molar mass, not a printed value.

Type in all cases: cell-based
For assay [1], the system named is Pseudomonas aeruginosa (9027). As to the kind of experiment: Broth microdilution, P. aeruginosa.
Assay [2] concerns Staphylococcus aureus (2592). In words: Broth microdilution, S. aureus. For orientation: Dilution methods test growth across graded concentrations, often in twofold steps.
The subject of assay [3] is Escherichia coli (25,922). In words: Broth microdilution, E. coli.
In a further assay the test system is MCF-7. In words: cells. The settings on record: Homo sapiens, MCF7; 24 h, MTS. The procedure: (§1) Human cervical (HeLa), breast (MCF-7), and liver (Hep3B) cancer cell lines were cultured in RPMI-1640 medium (Sigma-Norwich, Norfolk, UK). Then each kind of the tested cells was treated with 10% fetal bovine serum mixed with 1% penicillin/streptomycin antibiotics (BI, Ghaziabad, UP, India), and 1% L-glutamine (Sigma-Norwich, Norfolk, UK). The cancer cells were cultured at 37 °C in a humidified atmosphere with 5% CO2 and then planted in a 96-well plate at 2.6 × 10^4 cells/well. After 2 days, the EO with different concentrations (10, 30, 60, 120, and 500 µg/mL) was applied to the cells for 24 h. According to the manufacturer’s guidelines, cell viability was estimated by the CellTilter 96® Aqueous One Solution Cell Proliferation (MTS) method. In the end, 100 μL of media and 20 μL of MTS solution were added to each well, and the well plates were incubated at 37 °C for 2 h. The absorbance was measured at 490 nm.

A further assay relates to HeLa. In words: cells. The settings on record: Homo sapiens, 24 h, MTS. The procedure: as §1

A word on the MIC: it is the least concentration at which growth counts as inhibited. For `O=C(O)c1cn(C2CC2)c2cc(N3CCNCC3)c(F)cc2c1=O` [Ciprofloxacin], the minimum inhibitory concentration (MIC) in assay [1] is 3.12 ± 0.31 µg/mL (≈ 9.42 µM); in assay [2], 0.78 ± 0.01 µg/mL (≈ 2.35 µM); in assay [3] it was 0.78 ± 0.01 µg/mL (≈ 2.35 µM).
The IC50 is the point on the concentration scale where inhibition reaches its midpoint. Low values mean greater potency, high ones weaker potency. On to `COc1cccc2c1C(=O)c1c(O)c3c(c(O)c1C2=O)C[C@@](O)(C(=O)CO)C[C@@H]3O[C@H]1C[C@H](N)[C@H](O)[C@H](C)O1` [Doxorubicin], for which the IC50 in the assay with MCF-7 came out at 0.37 ± 0.22 µg/mL (≈ 0.681 µM); with HeLa it was 0.84 ± 1.1 µg/mL (≈ 1.55 µM).
